Laboratory results published in PMC6113271.
No constants are given. Whether binding was seen depends on the method and setting. Binding seen in cells or lysates may run through a third protein. Some binding calls cover weakened binding; strength is not graded here.

Amino acid sequences for entries named in this document (tags omitted).
UniProt Q9JIF0: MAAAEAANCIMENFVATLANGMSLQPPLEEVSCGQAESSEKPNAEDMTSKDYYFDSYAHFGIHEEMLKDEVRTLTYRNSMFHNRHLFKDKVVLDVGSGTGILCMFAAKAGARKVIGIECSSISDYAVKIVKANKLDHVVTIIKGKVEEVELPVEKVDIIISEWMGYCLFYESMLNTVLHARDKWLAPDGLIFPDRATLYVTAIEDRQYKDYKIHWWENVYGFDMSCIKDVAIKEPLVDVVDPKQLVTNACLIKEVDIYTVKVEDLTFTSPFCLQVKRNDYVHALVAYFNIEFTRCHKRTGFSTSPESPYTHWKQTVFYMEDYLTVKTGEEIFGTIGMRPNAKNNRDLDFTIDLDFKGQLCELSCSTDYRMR
UniProt Q04207: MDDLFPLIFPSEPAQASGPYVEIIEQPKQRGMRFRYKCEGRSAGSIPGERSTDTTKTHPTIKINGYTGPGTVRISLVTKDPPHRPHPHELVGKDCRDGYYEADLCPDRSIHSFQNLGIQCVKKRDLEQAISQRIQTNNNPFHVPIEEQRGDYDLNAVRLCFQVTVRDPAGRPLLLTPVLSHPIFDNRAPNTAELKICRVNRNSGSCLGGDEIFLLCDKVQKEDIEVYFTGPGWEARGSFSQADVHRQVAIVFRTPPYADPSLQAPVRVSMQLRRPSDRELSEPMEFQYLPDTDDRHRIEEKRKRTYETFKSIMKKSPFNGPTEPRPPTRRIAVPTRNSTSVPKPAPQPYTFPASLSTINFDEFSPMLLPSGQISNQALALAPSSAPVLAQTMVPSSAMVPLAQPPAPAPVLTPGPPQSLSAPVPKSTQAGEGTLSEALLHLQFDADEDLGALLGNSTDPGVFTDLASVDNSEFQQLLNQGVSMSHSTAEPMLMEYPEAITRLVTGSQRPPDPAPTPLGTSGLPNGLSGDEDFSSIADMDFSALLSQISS

Target: Protein arginine methyltransferase 1 (PRMT1) (mouse (endogenous in RAW 264.7)) (UniProt Q9JIF0)
Test: co-IP; RAW 264.7 cells with or without RANKL (100 ng/ml) in the presence of M-CSF (30 ng/ml) for 24 h; non-denaturing lysis buffer (20 mM Tris pH 7.4, 150 mM NaCl, 1% NP-40, 1 mM EDTA, 5% glycerol); 200 μg protein with PRMT1 antibody and protein G agarose, 24 h at 4 °C; immunoblotting

binding: binds
Substance: NF-κB subunit p65 (from UniProt Q04207 1-549)
